Over roughly 33,000 sequences, “E-score (-0.5 to 0.5)” has its median near -0.0014; the highest 2% begin near 0.25. The list shows a part of the results.
target: T1, Cad1 (UniProt P24813); assay: PBM E-score (8-mer binding enrichment) (E-score (-0.5 to 0.5)); higher = stronger / more preferred TF binding; conditions: protein concentration: 100 nM; construct: GST-full length
T1 sequence: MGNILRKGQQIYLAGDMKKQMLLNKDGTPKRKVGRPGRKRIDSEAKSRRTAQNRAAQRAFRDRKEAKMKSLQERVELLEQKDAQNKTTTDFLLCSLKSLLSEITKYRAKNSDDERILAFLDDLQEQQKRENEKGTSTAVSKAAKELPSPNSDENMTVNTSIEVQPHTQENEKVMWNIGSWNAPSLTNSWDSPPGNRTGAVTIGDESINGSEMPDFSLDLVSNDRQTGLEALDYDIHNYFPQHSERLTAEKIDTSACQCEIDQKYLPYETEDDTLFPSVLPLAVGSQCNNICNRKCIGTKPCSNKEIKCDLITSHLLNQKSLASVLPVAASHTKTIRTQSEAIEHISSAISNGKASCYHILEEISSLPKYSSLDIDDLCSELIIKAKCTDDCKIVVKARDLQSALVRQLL
Method in brief: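 The E-score, a modified Wilcoxon-Mann-Whitney statistic, was computed by the Universal PBM Analysis Suite for every ungapped eight-base word pooled with its reverse complement. Scans behind it were normalised with masliner after bound GST-tagged yeast transcription factors were detected with fluorescent anti-GST. The proteins, at about 100-200 nM, had been applied to universal all-10-mer Agilent arrays made double-stranded by primer extension.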

Sequence | PBM E-score
AGTCGCTG | -0.0625
ATTCAACC | -0.0124
GCTACAAC | -0.031
TAGCGGGA | -0.143
CTACAATA | 0.0878
TAACTGCA | 0.109
CGCTCGTA | -0.0113
AAGTGAGA | -0.0014
ATTCTCTC | -0.0842
ATCATCAA | 0.129
TCGATGAA | -0.0614
CCGAGCAG | -0.143
AACACCAG | -0.0336
ATTAACCA | -0.0314
AACGAGGT | -0.019
CCTCCGGA | -0.0221
GTGTTTTA | -0.0534
TCAGCAGA | 0.164
AGTACACT | -0.148
GTTCCGAA | 0.21
TAGGGGGA | -0.372
AACTGGTA | -0.0729
TTTCAAAA | 0.0245
CCCCGATC | -0.341
CTAATGGA | -0.0567

Sequence | PBM E-score
ACGAGGCT | 0.158
CTATATTC | -0.00266
GGGCATGA | -0.0754
CGCCGTAC | 0.0265
GCATCTAC | 0.0907
CTGCTCTC | -0.122
GACGACCC | -0.00081
ACTCCGAG | 0.0609
ACTCAATG | -0.00434
ACGATTCT | 0.0117
GTTTTATA | -0.00371
ACCTCGGG | -0.173
GAGGGTAA | -0.0711
AACTCCCT | -0.132
CATTTATC | 0.15
ACAAAACC | 0.106
GACAGATC | 0.198
CGAGCAAG | -0.046
ACAGTTCT | -0.0349
TCTGCGAA | -0.137
GCGGTGAC | -0.0159
TAAGGCCA | 0.0507
GCGATTGA | -0.0173
CTACGCGC | 0.0221
ACGTGTCA | 0.0987

Given as labelled records: entries from further up
AACTCCCT
  PBM E-score: -0.132
CATTTATC
  PBM E-score: 0.15

The list continues:

Sequence | PBM E-score
CCGTGTAA | -0.117
CTACTCAA | 0.165
AAGGCACC | -0.0905
ACTCAGTA | 0.0874
GACTCAGC | 0.0517
CCACAAGC | -0.118
CAACGCCG | 0.0844
AACAGAAG | 0.0569
GCGGGGCA | 0.0386
CAGCTTTC | -0.054
CCATCACC | 0.0432
GGTCGCAA | -0.138
GCGGGGGA | -0.364
ATCACTTG | -0.056
ATATAGGA | 0.166
GCCTATCA | 0.169
CGTATAAA | 0.139
ATGTGATC | 0.185
ATGGGTTC | -0.181
AGGGTATA | 0.105
TCAAATAA | 0.0928
ATTTCTCA | 0.0134
CGGGGTAC | -0.132
CAGGTCGC | -0.0873
ACTGTAGA | -0.0706

Sequence | PBM E-score
AAGCTTTA | 0.13
CAGCGTAC | -0.0907
CTCCTTTC | -0.313
AATGTCGC | 0.0509
GGGTCGAC | 0.0995
CTCCGGCA | 0.0638
GACCCAAC | 0.113
CCAAGGCA | -0.139
ACCGTGTC | -0.0471
ACACTTCC | -0.0945
ACTATCAA | 0.194
CCAGCCGA | -0.0214
CGGAACTC | 0.052
AATAGACC | -0.0647
ACCGTAAT | 0.0187
GATGTCAC | 0.146
ATGAGAAC | 0.142
ATCATGAC | 0.175
ACAAGCGG | 0.0904
CGGCGTCA | -0.0161
CTTTTTAA | -0.00761
CTCTGCAG | -0.121
AAGATCTT | 0.136
CGTTTCCA | 0.0206
CTCGTTTA | 0.00416

Sequence | PBM E-score
CCCTTGAC | -0.197
CAACTATG | 0.034
CAGGACTA | -0.00223
CGATTTCA | 0.102
GTAATCGA | 0.242
AGTGGCTA | -0.0597
ACGAACAC | 0.198
TGGAAACA | 0.0315
GAGATTCA | 0.0766
CCTAAAGA | -0.165
ATGTAAGC | 0.305
AGGCCTTA | -0.026
TATTATCA | 0.138
CAATGACG | -0.237
GGATTTTA | 0.00558
CTACGTAG | 0.106
AAGCGTCT | -0.173
CATGCTTA | 0.106
TCTAATCA | 0.181
AAATCCTG | 0.135
CACCGTAC | -0.0219
GAGATCGC | 0.0727
CATCCTGA | 0.0565
CCATGGTA | 0.0858
ACGGTGAG | -0.0981

Sequence | PBM E-score
TACCGCAA | 0.209
CCTCTGAG | -0.182
CCCCCAAA | -0.251
ATGCCCCG | -0.0614
AGAAACGA | -0.0254
ACATCCCC | -0.105
ACACGTTG | -0.0714
AAGCGGAG | -0.153
CCCATCTC | -0.0949
CTCCGTAA | -0.0966
CGCGACAG | 0.0208
CGCACAGA | 0.0159
GGATAACC | -0.0327
CTCGAGAG | 0.0431
AAGTTATC | 0.153
CGTTTCCC | -0.117
CCTACTCA | 0.058
AATGTACC | -0.12
TGAACTAA | -0.063
AGCCCCTA | -0.105
GAGGCCCA | -0.3
GTAGGAGA | -0.124
AAAGACAG | 0.161
GGCATAAA | 0.00764
CCCAGTAG | -0.0815

Sequence | PBM E-score
ACAGTGAA | 0.0694
GACCTGAC | -0.044
AGAGGGCG | -0.137
GCGGCAGA | -0.0716
CGAAAGGC | -0.067
GACAGGCC | 0.237
CCCTACCA | -0.103
CTACTGTA | -0.0464
TGGTCTAA | -0.208
AAAATTGA | 0.104
AGTTTGCC | -0.0402
ATAGTTAA | 0.114
CCGAGCCC | -0.263
CGCCGGTC | 0.0454
CGAAGCGC | -0.00786
TACTCTCA | 0.0305
GATTGTGA | 0.138
GACAGCTC | -0.16
GAAAGGAC | -0.0895
GTTGAGCA | 0.139
CGAGCTAG | -0.0498
ATGACAAA | 0.414

Reprinted from the entries so far for reference:
Sequence | PBM E-score
TGGAAACA | 0.0315
GAGATTCA | 0.0766
CCTAAAGA | -0.165
